Read-outs that look alike come from different tables or passages of the source.
How the values were obtained:
TLR7/8 [1] = details: 24 hours
Protocol: Namely, in the present experiment their ability was evaluated to inhibit TLR7/8 in human PBMC's, as measured by the release of specific cytokines. The following cytokines were measured for a complete cytokine response profile (no dilution of samples): IL-1β, IL-6, IL-12p40, TNFα and IFNα.
Levels of each cytokine induction were interpolated from standard curves using a 5-parameter non-linear regression analysis, where y=(A+((B−A)/(1+(((B−E)/(E−A))*((x/C)^D))))). The interpolated data were then normalized to the vehicle control. Percent of control (PoC) was also calculated using the formula, PoC=(test sample/positive vehicle control)×100.
Cryopreserved human PBMC's were drip-thawed. Cells were diluted to the appropriate density (1×10^5 per well) and seeded into 96-well polypropylene plates with 150 μL per well of culture medium (RPMI 1640, 10% heat-inactivated Fetal Bovine Serum (FBS), 1% penicillin/streptomycin, 2 mM L-glutamine) for compound test wells. For the control wells, cells (1×10^5 per well) were plated in 150 μL per well of culture medium.
Cells were incubated at 37° C., 5% CO2 for 1 hour prior to the addition of test compounds or controls.
Test compounds were solubilized in DMSO to make 20× stock solutions, then diluted further with cell culture medium.
Test compounds were added to the PBMC's in volumes of 10 μL and incubated for 1 hour at 37° C., 5% CO2. Compounds were tested in duplicates at final assay concentrations of 10 μM.
Plates were incubated at 37° C., 5% CO2 for 24 hours. Plates were centrifuged at 200×g for 10 minutes. Cell culture supernatants were collected and stored at −80° C. until needed for analysis.
Harvested cell culture supernatants were measured for IL-1β, IL-6, IL-12p40, TNFα and IFNα release to assess dual TLR7/8 inhibition.

TLR7/8 [2] = experiment: TLR7/8 Inhibition Assay IC50 in human PBMC's, cytokine release after CL075 stimulation (Luminex); format: cell-based; details: positive control 2 μg/mL, 24 hours
Protocol: Cryopreserved human PBMC's were drip-thawed. Cells were diluted to the appropriate density (1×10^5 per well) and seeded into 96-well polypropylene plates with 150 μL per well of culture medium (RPMI 1640, 10% heat-inactivated FBS, 1% penicillin/streptomycin, 2 mM L-glutamine) for compound test wells. […] The positive controls, CL075 were resuspended in endotoxin-free water at 1 mg/mL to make working stock solutions.
After the 1-hour incubation, 40 μL appropriate diluted working stock TLR 7/8 ligands were added to the test and reference compound wells, respectively to give final assay volumes of 200 μL. Controls were added to the PBMC's in volumes of 40 μL of diluted working stock, followed by addition of 10 μL of appropriately diluted vehicle, to mimic compound addition, to give final assay volumes of 200 μL. Consequently, the final DMSO vehicle concentration in the assay was from 1 to 0.5%. The control CL075 was used at 2 μg/mL.
Than plates were centrifuged at 200×g for 10 minutes. […] Cytokine levels in each sample were determined using Luminex methodology, per the manufacturer's protocol.
The interpolated data were then normalized to the vehicle or unstimulated control.
Outlier calculation was performed using the Grubbs maximum normed residual test.
Eight test compounds were evaluated for their ability to inhibit the TLR7/8 in PBMC's from one human donor following incubation of 24 hours.

[3] = positive control CL075 2 μg/mL alone, defines 100 % of control, human PBMC's

SMILES: CCCc1nc2c(N)nc3ccccc3c2s1 [CL075]
- stimulation of cytokine release from human PBMC's (in words) (TLR7/8 [1]; positive control 2 μg/mL): stimulated the release of appropriate cytokines
- TLR7/8 Inhibition, IFNα (POC %) (TLR7/8 [1]; [3]): 100%
- TLR7/8 Inhibition, IL-1β (POC %) (TLR7/8 [1]; [3]): 100%
- TLR7/8 Inhibition, IL-6 (POC %) (TLR7/8 [1]; [3]): 100%
- TLR7/8 Inhibition, IL-12p40 (POC %) (TLR7/8 [1]; [3]): 100%
- TLR7/8 Inhibition, TNFα (POC %) (TLR7/8 [1]; [3]): 100%
- stimulation of cytokine release from human PBMC's (in words) (TLR7/8 [2]): stimulated the release of appropriate cytokines

Reference: US10988457B2, “TLR inhibitors” (Insilico Medicine IP Limited, priority 2019, dated 2021)
